These are yes or no findings as the source states them, for the method shown. Binding seen in cells or lysates may run through a third protein. A yes stands for co-enrichment or nearness to the bait. Other partners may have been found. One block for each molecule: values may come before it.
Key:
[1] = target: recombinant, Myc-tagged SVEP1 (Sushi, von Willebrand factor type A, EGF and pentraxin domain containing 1) (mouse) (UniProt A2AVA0); experiment: affinity purification with mass spectrometry; recombinant Myc-tagged SVEP1 added for 1 h to enriched serum-free media of murine VSMCs; anti-c-Myc magnetic beads, 0.05% Tween 20, 4 C; on-bead digestion, UPLC-timsTOF; two experiments; only the target purified
[2] = target: SVEP1 miniTurbo fusion protein (SVEP1-mTID) (mouse) (UniProt A2AVA0); experiment: proximity labelling; recombinant SVEP1-mTID (SVEP1-Myc as control) added to enriched VSMC media with 500 uM biotin and 1 mM ATP for 4 h; streptavidin magnetic beads; UPLC-Orbitrap; two experiments; only the target purified

Protein sequences, listed by entry. Tags and fused reporters are not part of them. Residues count along the entry.
UniProt A2AVA0, residues 18-3567: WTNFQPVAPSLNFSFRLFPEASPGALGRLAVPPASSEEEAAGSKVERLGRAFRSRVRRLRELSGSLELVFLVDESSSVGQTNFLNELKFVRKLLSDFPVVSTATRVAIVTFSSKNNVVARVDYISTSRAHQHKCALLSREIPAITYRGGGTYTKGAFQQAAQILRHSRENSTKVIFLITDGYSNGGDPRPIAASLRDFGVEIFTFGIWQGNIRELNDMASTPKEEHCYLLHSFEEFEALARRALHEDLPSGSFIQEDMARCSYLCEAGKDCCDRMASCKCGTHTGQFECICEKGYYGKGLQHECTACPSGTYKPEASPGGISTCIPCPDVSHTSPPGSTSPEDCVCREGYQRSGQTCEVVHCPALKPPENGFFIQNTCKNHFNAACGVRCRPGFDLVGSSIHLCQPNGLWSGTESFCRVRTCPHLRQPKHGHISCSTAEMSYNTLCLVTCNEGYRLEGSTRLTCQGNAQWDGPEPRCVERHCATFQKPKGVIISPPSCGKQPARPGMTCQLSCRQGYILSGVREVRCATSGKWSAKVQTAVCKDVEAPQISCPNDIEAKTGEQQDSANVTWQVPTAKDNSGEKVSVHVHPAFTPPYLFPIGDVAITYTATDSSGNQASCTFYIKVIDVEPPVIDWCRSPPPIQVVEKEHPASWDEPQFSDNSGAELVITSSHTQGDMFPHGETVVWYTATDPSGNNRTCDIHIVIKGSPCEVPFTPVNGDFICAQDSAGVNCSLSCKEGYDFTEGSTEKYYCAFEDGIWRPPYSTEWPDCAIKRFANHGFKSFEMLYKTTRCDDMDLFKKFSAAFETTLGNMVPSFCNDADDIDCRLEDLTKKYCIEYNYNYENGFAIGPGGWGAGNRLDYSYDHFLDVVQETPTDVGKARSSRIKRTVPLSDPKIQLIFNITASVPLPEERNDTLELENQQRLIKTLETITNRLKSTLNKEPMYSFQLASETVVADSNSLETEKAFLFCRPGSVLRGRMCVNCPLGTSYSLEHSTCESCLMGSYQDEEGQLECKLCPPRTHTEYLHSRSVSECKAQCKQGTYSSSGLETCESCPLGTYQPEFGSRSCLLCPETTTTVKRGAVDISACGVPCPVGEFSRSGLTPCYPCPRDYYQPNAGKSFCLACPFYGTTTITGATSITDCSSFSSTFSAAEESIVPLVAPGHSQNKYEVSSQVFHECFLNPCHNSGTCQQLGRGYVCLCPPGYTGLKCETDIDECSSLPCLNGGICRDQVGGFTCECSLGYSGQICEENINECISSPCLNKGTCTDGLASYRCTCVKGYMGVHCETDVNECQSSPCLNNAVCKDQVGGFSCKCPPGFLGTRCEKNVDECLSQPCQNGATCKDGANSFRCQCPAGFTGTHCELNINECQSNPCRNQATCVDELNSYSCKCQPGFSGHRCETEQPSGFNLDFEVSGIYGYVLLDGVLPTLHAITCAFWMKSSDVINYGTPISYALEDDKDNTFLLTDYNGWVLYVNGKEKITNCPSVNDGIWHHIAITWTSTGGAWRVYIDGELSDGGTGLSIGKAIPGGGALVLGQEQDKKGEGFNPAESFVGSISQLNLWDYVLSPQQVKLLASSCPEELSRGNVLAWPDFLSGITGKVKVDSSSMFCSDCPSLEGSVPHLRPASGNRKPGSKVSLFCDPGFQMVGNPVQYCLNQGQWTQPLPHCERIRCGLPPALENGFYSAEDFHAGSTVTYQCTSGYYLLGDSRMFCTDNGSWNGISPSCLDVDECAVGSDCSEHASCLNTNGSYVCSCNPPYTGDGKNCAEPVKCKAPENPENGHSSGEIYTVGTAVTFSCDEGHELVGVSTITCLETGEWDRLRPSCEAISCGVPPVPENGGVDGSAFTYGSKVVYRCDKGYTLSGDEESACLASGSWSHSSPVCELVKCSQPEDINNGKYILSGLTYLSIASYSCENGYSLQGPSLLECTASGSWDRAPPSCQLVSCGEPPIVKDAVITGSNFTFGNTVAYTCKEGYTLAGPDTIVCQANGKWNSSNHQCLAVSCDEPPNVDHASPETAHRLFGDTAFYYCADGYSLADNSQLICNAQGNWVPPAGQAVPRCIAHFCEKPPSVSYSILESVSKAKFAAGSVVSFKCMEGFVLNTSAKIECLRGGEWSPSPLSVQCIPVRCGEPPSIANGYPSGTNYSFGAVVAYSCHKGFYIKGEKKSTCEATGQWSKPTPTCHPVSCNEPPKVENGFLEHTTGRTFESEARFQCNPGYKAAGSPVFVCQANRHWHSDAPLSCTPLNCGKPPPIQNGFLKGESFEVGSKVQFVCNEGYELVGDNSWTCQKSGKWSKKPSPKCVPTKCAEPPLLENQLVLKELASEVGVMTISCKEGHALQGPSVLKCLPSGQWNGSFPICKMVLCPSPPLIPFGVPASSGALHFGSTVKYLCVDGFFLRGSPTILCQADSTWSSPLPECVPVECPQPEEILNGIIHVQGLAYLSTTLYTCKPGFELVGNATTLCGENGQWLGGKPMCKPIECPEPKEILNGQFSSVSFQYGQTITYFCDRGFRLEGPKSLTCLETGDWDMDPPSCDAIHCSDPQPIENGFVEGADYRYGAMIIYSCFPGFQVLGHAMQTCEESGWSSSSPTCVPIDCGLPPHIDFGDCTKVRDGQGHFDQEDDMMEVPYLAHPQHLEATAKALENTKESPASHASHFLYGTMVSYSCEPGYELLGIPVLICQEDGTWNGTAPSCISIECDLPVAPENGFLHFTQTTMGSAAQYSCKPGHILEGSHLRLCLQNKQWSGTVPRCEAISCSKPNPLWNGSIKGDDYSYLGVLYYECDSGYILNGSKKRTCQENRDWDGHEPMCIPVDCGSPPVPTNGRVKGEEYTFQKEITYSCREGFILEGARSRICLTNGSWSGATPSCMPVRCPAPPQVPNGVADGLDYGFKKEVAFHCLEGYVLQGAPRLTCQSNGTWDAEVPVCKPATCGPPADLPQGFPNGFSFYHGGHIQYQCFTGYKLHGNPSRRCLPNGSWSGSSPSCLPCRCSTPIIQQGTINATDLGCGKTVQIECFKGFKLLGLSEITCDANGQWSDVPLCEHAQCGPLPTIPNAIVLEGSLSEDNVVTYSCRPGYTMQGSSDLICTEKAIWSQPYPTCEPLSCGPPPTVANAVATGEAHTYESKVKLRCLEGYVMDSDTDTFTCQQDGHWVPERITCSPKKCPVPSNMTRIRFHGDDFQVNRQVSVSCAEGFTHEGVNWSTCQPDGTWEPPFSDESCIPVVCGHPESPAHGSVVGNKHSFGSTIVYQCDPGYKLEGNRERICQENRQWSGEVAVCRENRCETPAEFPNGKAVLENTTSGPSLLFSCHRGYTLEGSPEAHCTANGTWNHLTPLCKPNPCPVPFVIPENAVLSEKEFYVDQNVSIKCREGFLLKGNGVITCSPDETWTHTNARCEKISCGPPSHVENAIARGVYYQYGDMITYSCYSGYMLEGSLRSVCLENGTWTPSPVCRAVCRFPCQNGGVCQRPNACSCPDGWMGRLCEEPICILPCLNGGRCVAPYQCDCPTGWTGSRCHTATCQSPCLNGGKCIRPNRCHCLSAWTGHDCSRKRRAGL
UniProt P02468, residues 34-1607: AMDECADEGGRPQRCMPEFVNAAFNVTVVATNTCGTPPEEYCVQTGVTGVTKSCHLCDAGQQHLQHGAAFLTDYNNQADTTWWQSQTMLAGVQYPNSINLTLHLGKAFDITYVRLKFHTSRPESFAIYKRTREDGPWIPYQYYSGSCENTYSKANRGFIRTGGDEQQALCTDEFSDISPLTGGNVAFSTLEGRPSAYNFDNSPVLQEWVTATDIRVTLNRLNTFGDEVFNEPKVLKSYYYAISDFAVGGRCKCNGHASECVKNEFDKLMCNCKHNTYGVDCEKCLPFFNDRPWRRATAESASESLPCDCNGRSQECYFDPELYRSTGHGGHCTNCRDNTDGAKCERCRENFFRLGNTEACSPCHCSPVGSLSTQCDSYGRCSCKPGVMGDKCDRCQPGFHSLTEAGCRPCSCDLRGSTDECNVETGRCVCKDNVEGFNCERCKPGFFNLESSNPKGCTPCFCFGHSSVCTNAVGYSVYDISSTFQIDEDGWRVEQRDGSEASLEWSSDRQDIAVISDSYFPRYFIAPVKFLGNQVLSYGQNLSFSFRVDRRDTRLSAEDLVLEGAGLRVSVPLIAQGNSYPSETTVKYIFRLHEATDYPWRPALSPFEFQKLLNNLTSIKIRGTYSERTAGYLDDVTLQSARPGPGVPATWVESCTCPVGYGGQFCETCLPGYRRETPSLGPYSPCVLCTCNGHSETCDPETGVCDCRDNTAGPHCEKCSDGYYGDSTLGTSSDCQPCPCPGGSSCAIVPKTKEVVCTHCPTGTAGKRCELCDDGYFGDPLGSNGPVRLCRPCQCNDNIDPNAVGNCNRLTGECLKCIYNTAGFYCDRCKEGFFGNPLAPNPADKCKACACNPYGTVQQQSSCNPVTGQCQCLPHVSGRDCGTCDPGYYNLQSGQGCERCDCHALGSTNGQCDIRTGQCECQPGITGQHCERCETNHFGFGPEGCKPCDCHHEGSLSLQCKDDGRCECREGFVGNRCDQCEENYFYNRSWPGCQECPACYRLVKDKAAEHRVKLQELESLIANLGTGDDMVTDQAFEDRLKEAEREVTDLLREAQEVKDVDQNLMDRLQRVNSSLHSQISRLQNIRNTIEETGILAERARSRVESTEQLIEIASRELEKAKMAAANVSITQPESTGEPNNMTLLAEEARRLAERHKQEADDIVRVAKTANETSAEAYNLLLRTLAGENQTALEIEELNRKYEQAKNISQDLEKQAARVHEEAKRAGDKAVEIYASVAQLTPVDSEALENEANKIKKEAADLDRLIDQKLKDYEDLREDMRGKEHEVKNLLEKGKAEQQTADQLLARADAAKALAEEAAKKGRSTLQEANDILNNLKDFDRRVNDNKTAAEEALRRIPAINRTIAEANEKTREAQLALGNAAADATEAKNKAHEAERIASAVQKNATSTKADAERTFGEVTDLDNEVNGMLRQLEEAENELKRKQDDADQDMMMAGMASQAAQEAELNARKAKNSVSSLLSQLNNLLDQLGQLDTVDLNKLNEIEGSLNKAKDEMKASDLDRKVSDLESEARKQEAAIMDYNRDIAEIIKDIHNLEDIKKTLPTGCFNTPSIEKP

- binding [1]: binds
- binding [2]: binds
Molecule: Basement membrane-specific heparan sulfate proteoglycan core protein (from UniProt Q05793 22-3707)

- binding [1]: binds
- binding [2]: binds
Molecule: Laminin subunit gamma-1 (from UniProt P02468 34-1607)

- binding [1]: binds
- binding [2]: binds
Molecule: Fibronectin (from UniProt P11276 33-2477)

- binding [1]: binds
- binding [2]: binds
B1: Nidogen-1 (protein, UniProt P10493 29-1245)
chain: LNRQELFPFGPGQGDLELEAGDDVVSPSLELIGELSFYDRTDITSVYVTTNGIIAMSEPPATEYHPGTFPPSFGSVAPFLADLDTTDGLGNVYYREDLSPFIIQMAAEYVQRGFPEVSFQPTSVVVVTWESVAPYGGPSSSPAEEGKRNTFQAVLASSNSSSYAIFLYPEDGLQFFTTFSKKDESQVPAVVGFSKGLVGFLWKSNGAYNIFANDRESIENLAKSSNAGHQGVWVFEIGSPATAKGVVSADVNLDLDDDGADYEDEDYDLVTSHLGLEDVATPSPSHSPRRGYPDPHNVPRILSPGYEATERPRGVPTERTRSFQLPAERFPQHHPQVIDVDEVEETGVVFSYNTGSQQTCANNRHQCSVHAECRDYATGFCCRCVANYTGNGRQCVAEGSPQRVNGKVKGRIFVGSSQVPVVFENTDLHSYVVMNHGRSYTAISTIPETVGYSLLPLAPIGGIIGWMFAVEQDGFKNGFSITGGEFTRQAEVTFLGHPGKLVLKQQFSGIDEHGHLTISTELEGRVPQIPYGASVHIEPYTELYHYSSSVITSSSTREYTVMEPDQDGAAPSHTHIYQWRQTITFQECAHDDARPALPSTQQLSVDSVFVLYNKEERILRYALSNSIGPVRDGSPDALQNPCYIGTHGCDSNAACRPGPGTQFTCECSIGFRGDGQTCYDIDECSEQPSRCGNHAVCNNLPGTFRCECVEGYHFSDRGTCVAAEDQRPINYCETGLHNCDIPQRAQCIYMGGSSYTCSCLPGFSGDGRACRDVDECQHSRCHPDAFCYNTPGSFTCQCKPGYQGDGFRCMPGEVSKTRCQLEREHILGAAGGADAQRPTLQGMFVPQCDEYGHYVPTQCHHSTGYCWCVDRDGRELEGSRTPPGMRPPCLSTVAPPIHQGPVVPTAVIPLPPGTHLLFAQTGKIERLPLERNTMKKTEAKAFLHIPAKVIIGLAFDCVDKVVYWTDISEPSIGRASLHGGEPTTIIRQDLGSPEGIALDHLGRTIFWTDSQLDRIEVAKMDGTQRRVLFDTGLVNPRGIVTDPVRGNLYWTDWNRDNPKIETSHMDGTNRRILAQDNLGLPNGLTFDAFSSQLCWVDAGTHRAECLNPAQPGRRKVLEGLQYPFAVTSYGKNLYYTDWKTNSVIAMDLAISKEMDTFHPHKQTRLYGITIALSQCPQGHNYCSVNNGGCTHLCLPTPGSRTCRCPDNTLGVDCIERK

Reference: article PMC9932102, “SVEP1 is an endogenous ligand for the orphan receptor PEAR1” (Nature Communications, 2023)
